Some of the results follow. These are raw signals, not scaled to a control.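 First-pass screen: polymyxin B was added at a level that permeabilizes the Salmonella outer membrane while sparing the inner membrane. DMSO wells, with and without polymyxin B, defined maximum growth. Because plates differed from one another, each plate's data were ranked separately and the compounds with the lowest OD600 were carried forward as hits.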
Test system: Salmonella enterica serovar Typhimurium SL1344
Assay: bacterial growth OD600 after 18 h with compound and polymyxin B; higher = more bacterial growth (less inhibition)
Conditions: 50 µM, Mueller-Hinton broth

| SMILES | bacterial growth OD600 (polymyxin B 0.75 µg/mL) | bacterial growth OD600 (polymyxin B 1 µg/mL) |
| --- | --- | --- |
| C=C(C)CNC(=O)C1CCCN(C2CCN(C3Cc4ccccc4C3)CC2)C1 (stereo not given) | 1.05 |  |
| CN(C)C1(CNC(=O)c2ccc(OC3CCN(C(=O)C4CC4)CC3)cc2)CCCCC1 |  | 0.859 |
| CN(C)c1cccc(C(=O)NC2CC(=O)N(C3CCCCCC3)C2)c1 (stereo not given) |  | 0.958 |
| CCC1CCCCN1C(=O)CCC1(Cc2ccc3ccccc3c2)CCC(=O)N1 (stereo not given) | 0.875 |  |
| Cc1cccn2c(CNCCc3ccncc3)c(C(=O)N3CCOCC3)nc12 |  | 1.01 |
| Cc1ccc(CN2CCC(CN(C)Cc3c(C)n(C)n(-c4ccccc4)c3=O)CC2)o1 |  | 1.14 |
| CCc1csc(CNC(=O)c2ccc(N(C)Cc3cnccn3)nc2)n1 | 0.778 |  |
| COc1cccc(OCC2CCCN(C(=O)CCC3(Cc4ccccc4)CCC(=O)N3)C2)c1 (stereo not given) | 0.008 |  |
| O=C(NCCCc1ccccn1)c1ccc(N2CCCOCC2)nc1 | 0.858 |  |
| COc1cc2nc(N(C)C)c(CNCc3ccc(C(F)(F)F)cc3)cc2c(OC)c1OC | 0.899 |  |
| CSCCNCc1c(C(=O)N2CCCCCCC2)nc2ccc(Cl)cn12 | 0.586 |  |
| CCOC(=O)N1CCN(C(=O)CC2(c3cccc(C(F)(F)F)c3)CC(=O)N(C3CC3)C2=O)CC1 (stereo not given) | 0.798 |  |
| Cc1cnccc1CN(C)C(=O)CC(c1cccc(O)c1)c1ccccc1Cl (stereo not given) |  | 0.012 |
| Cc1cc(C(=O)NCc2cccnc2N2CCN(c3ccccn3)CC2)no1 | 0.709 |  |
| Cc1ccnc(N2CCC(C3CCN(Cc4cccnc4)CC3)C2)c1 (stereo not given) | 0.78 |  |
| O=C(CCC1(Cc2ccc(Cl)cc2)CCC(=O)N1)NCc1nc2c(s1)CCCC2 (stereo not given) | 1.05 |  |
| CC(C)CC(C)N1CCC(N2CCC(C(=O)NCc3cccnc3)CC2)CC1 (stereo not given) |  | 0.749 |
| COCCO[C@H]1[C@H](NC(=O)C(C)C)c2ccccc2C12CCN(Cc1cc(C)c(OC)cc1C)CC2 | 0.862 |  |
| COc1ccc(-n2ncc(C(C)NC3CCN(Cc4ccccn4)CC3)c2C)cc1 (stereo not given) |  | 0.896 |
| COC(=O)c1ccccc1NC(=O)N1CCCC(C(=O)c2cccc(Cl)c2)C1 (stereo not given) |  | 0.8 |
| Cc1ccc2occ(CN3CCOc4ccc(C(O)CCc5ccccc5)cc4C3)c(=O)c2c1 (stereo not given) | 0.003 |  |
| COc1cccc(OCc2nc(C(=O)N3CCCCCCC3)co2)c1 |  | 1.02 |
| COc1ccc(-c2ccccc2NC(=O)C2CCCN2C(=O)CCNC(C)=O)cc1 (stereo not given) |  | 0.997 |
| O=C(NCCN1CCOCC1)c1ccc(N2CCC(NCc3ccc4c(c3)OCO4)CC2)cc1 | 0.689 |  |
| CN(Cc1ccon1)C(=O)C1CCCN(c2nc(-c3ccccc3)nc3c2CCC3)C1 (stereo not given) |  | 0.553 |
| O=C(/C=C/c1ccco1)N1CCC2(CCCN(CCCc3ccccc3)C2)C1 (stereo not given) |  | 0.024 |
| O=C(CCC(F)(F)F)N1CCCC(CCc2c(F)cccc2F)C1 (stereo not given) | 0.107 |  |
| CC(C)CN1CCC(C2CCN(S(=O)(=O)CC(F)(F)F)C2)CC1 (stereo not given) | 0.916 |  |
| Cc1csc(CN(C)C(=O)c2ccc3oc(CCc4ccccc4)nc3c2)n1 |  | 0.864 |
| O=C(Nc1ccc(Oc2ccccc2)nc1)C1CCN(Cc2cccnc2)CC1 |  | 0.982 |

Reformatted tab-delimited: entries from further up.
SMILES	bacterial growth OD600 (polymyxin B 0.75 µg/mL)	bacterial growth OD600 (polymyxin B 1 µg/mL)
COCCO[C@H]1[C@H](NC(=O)C(C)C)c2ccccc2C12CCN(Cc1cc(C)c(OC)cc1C)CC2	0.862	
COC(=O)c1ccccc1NC(=O)N1CCCC(C(=O)c2cccc(Cl)c2)C1 (stereo not given)		0.8
COc1cccc(OCc2nc(C(=O)N3CCCCCCC3)co2)c1		1.02
COc1ccc(-c2ccccc2NC(=O)C2CCCN2C(=O)CCNC(C)=O)cc1 (stereo not given)		0.997
CN(Cc1ccon1)C(=O)C1CCCN(c2nc(-c3ccccc3)nc3c2CCC3)C1 (stereo not given)		0.553

— the supplement of paper PMC12889115
